Experimental data reported in paper PMC11157767 (Molecular Cancer, 2024).
The source gives many values for each of these; only a part stands here.

Tested on: TFG-MET allograft tumors
Experiment: RNA-sequencing, differential expression and GSEA of TFG-MET allograft tumors
Format: in vivo, mouse
Protocol: Error bars display standard error of mean, statistical significance was determined using t-test analysis. (****;p<0.0001, ***;p<0.001, **;p<0.01, *;p<0.05). […] Each dot represents an individual replicate. Error bars display standard error of the mean.
Each dot represents one gene.

[1] = GOCC_STEREOCILIUM_TIP, CAP.v.Veh
[2] = GOCC_STRIATED_MUSCLE_THIN_FILAMENT, CAP.v.Veh
[3] = GOCC_SUPRAMOLECULAR_POLYMER, CAP.v.Veh
[4] = GOCC_SWI_SNF_COMPLEX, CAP.v.Veh
[5] = GOCC_SYNAPTONEMAL_STRUCTURE, CAP.v.Veh
[6] = GOCC_TRANSCRIPTIONALLY_ACTIVE_CHROMATIN, CAP.v.Veh
[7] = GOCC_TRANSPORTER_COMPLEX, CAP.v.Veh
[8] = GOCC_TRANSPORT_VESICLE, CAP.v.Veh
[9] = GOCC_TRANSPORT_VESICLE_MEMBRANE, CAP.v.Veh
[10] = GOCC_TRANS_GOLGI_NETWORK_MEMBRANE, CAP.v.Veh
[11] = GOCC_UBIQUITIN_LIGASE_COMPLEX, CAP.v.Veh
[12] = GOCC_VOLTAGE_GATED_CALCIUM_CHANNEL_COMPLEX, CAP.v.Veh

## CNC(=O)c1ccc(-c2cnc3ncc(Cc4ccc5ncccc5c4)n3n2)cc1F [Capmatinib]
GOCC_STEREOCILIUM_BUNDLE, CAP.v.Veh
  NES: -0.9456
[1]
  ES: 0.2712
  NES: 0.852
[2]
  ES: -0.2472
  NES: -0.7125
[3]
  ES: -0.1946
  NES: -0.9401
[4]
  ES: -0.3731
  NES: -1.04
GOCC_SYNAPTIC_CLEFT, CAP.v.Veh
  ES: 0.3229
  NES: 1.071
[5]
  ES: -0.3122
  NES: -0.938
GOCC_TIGHT_JUNCTION, CAP.v.Veh
  ES: -0.2637
  NES: -1.098
[6]
  ES: -0.4591
  NES: -1.376
[7]
  ES: 0.1838
  NES: 1.0908
[8]
  ES: 0.1731
  NES: 1.016
[9]
  ES: 0.1992
  NES: 1.108
[10]
  ES: 0.1787
  NES: 0.8673
GOCC_U5_SNRNP, CAP.v.Veh
  ES: -0.3461
  NES: -0.9825
[11]
  ES: -0.249
  NES: -1.137
GOCC_VESICLE_COAT, CAP.v.Veh
  ES: -0.2433
  NES: -0.8906
[12]
  ES: 0.2287
  NES: 0.9281
GOMF_3_5_EXONUCLEASE_ACTIVITY, CAP v Veh
  ES: -0.5851
GOMF_3_5_EXONUCLEASE_ACTIVITY, CAP v Veh, padj 3.79034e-5
  NES: -2.154
GOMF_ACETYLTRANSFERASE_ACTIVITY, CAP v Veh
  ES: -0.3683
GOMF_ACETYLTRANSFERASE_ACTIVITY, CAP v Veh, padj 0.0896504
  NES: -1.4731
GOMF_ANTIGEN_BINDING, CAP v Veh
  ES: 0.4175
GOMF_ANTIGEN_BINDING, CAP v Veh, padj 9.7126e-5
  NES: 2.045
GOMF_ATPASE_ACTIVITY, CAP v Veh
  ES: -0.4489
GOMF_ATPASE_ACTIVITY, CAP v Veh, padj 4.05909e-16
  NES: -2.122
GOMF_ATPASE_ACTIVITY_COUPLED_TO_TRANSMEMBRANE_MOVEMENT_OF_IONS_ROTATIONAL_MECHANISM, CAP v Veh
  ES: 0.6568
GOMF_BASAL_TRANSCRIPTION_MACHINERY_BINDING, CAP v Veh
  ES: -0.5295
GOMF_BASAL_TRANSCRIPTION_MACHINERY_BINDING, CAP v Veh, padj 0.000818404
  NES: -1.974
GOMF_CADHERIN_BINDING, CAP v Veh
  ES: -0.3418
GOMF_CATALYTIC_ACTIVITY_ACTING_ON_A_RRNA, CAP v Veh
  ES: -0.6876
GOMF_CATALYTIC_ACTIVITY_ACTING_ON_A_RRNA, CAP v Veh, padj 0.000999398
  NES: -2.031
GOMF_CATALYTIC_ACTIVITY_ACTING_ON_RNA, CAP v Veh
  ES: -0.5707
GOMF_CATALYTIC_ACTIVITY_ACTING_ON_RNA, CAP v Veh, padj 6.64586e-32
  NES: -2.666
GOMF_CELL_ADHESION_MOLECULE_BINDING, CAP v Veh
  ES: -0.2627
GOMF_CELL_ADHESION_MOLECULE_BINDING, CAP v Veh, padj 0.0952199
  NES: -1.252
GOMF_CHROMATIN_BINDING, CAP v Veh
  ES: -0.4456
GOMF_CHROMATIN_DNA_BINDING, CAP v Veh
  ES: -0.4681
GOMF_CHROMATIN_DNA_BINDING, CAP v Veh, padj 0.00192115
  NES: -1.853
GOMF_CIS_REGULATORY_REGION_SEQUENCE_SPECIFIC_DNA_BINDING, CAP v Veh
  ES: -0.3195
GOMF_C_C_CHEMOKINE_BINDING, CAP v Veh
  ES: 0.614
GOMF_C_C_CHEMOKINE_BINDING, CAP v Veh, padj 0.00332373
  NES: 2.15
GOMF_DAMAGED_DNA_BINDING, CAP v Veh
  ES: -0.5323
GOMF_DAMAGED_DNA_BINDING, CAP v Veh, padj 3.79034e-5
  NES: -2.06
GOMF_DNA_BINDING_TRANSCRIPTION_FACTOR_ACTIVITY, CAP v Veh
  ES: -0.2925
GOMF_DNA_BINDING_TRANSCRIPTION_FACTOR_ACTIVITY, CAP v Veh, padj 0.000282579
  NES: -1.427
GOMF_DNA_BINDING_TRANSCRIPTION_FACTOR_BINDING, CAP v Veh
  ES: -0.331
GOMF_DNA_BINDING_TRANSCRIPTION_FACTOR_BINDING, CAP v Veh, padj 0.00121719
  NES: -1.544
GOMF_DNA_DEPENDENT_ATPASE_ACTIVITY, CAP v Veh
  ES: -0.6653
GOMF_DNA_DEPENDENT_ATPASE_ACTIVITY, CAP v Veh, padj 5.49162e-8
  NES: -2.428
GOMF_DNA_REPLICATION_ORIGIN_BINDING, CAP v Veh
  ES: -0.7429
GOMF_DNA_SECONDARY_STRUCTURE_BINDING, CAP v Veh
  ES: -0.5938
GOMF_DNA_SECONDARY_STRUCTURE_BINDING, CAP v Veh, padj 0.000576173
  NES: -2.028
GOMF_ELECTRON_TRANSFER_ACTIVITY, CAP v Veh
  ES: 0.4609
GOMF_ELECTRON_TRANSFER_ACTIVITY, CAP v Veh, padj 2.1374e-8
  NES: 2.343
GOMF_EXONUCLEASE_ACTIVITY, CAP v Veh
  ES: -0.5165
GOMF_EXONUCLEASE_ACTIVITY, CAP v Veh, padj 0.000106377
  NES: -2.037
GOMF_EXONUCLEASE_ACTIVITY_ACTIVE_WITH_EITHER_RIBO_OR_DEOXYRIBONUCLEIC_ACIDS_AND_PRODUCING_5_PHOSPHOMONOESTERS, CAP v Veh
  ES: -0.5585
GOMF_EXONUCLEASE_ACTIVITY_ACTIVE_WITH_EITHER_RIBO_OR_DEOXYRIBONUCLEIC_ACIDS_AND_PRODUCING_5_PHOSPHOMONOESTERS, CAP v Veh, padj 7.88894e-5
  NES: -2.0933
GOMF_EXORIBONUCLEASE_ACTIVITY, CAP v Veh
  ES: -0.5822
GOMF_EXORIBONUCLEASE_ACTIVITY, CAP v Veh, padj 0.000606605
  NES: -2.022
GOMF_GENERAL_TRANSCRIPTION_INITIATION_FACTOR_BINDING, CAP v Veh
  ES: -0.4328
GOMF_GENERAL_TRANSCRIPTION_INITIATION_FACTOR_BINDING, CAP v Veh, padj 0.0916898
  NES: -1.54
GOMF_GLUTATHIONE_TRANSFERASE_ACTIVITY, CAP v Veh
  ES: 0.6773
GOMF_GLUTATHIONE_TRANSFERASE_ACTIVITY, CAP v Veh, padj 0.000294466
  NES: 2.3366
